Results are given in words; binding and its absence hold for the method and conditions named. Binding seen in cells or lysates may run through a third protein. These calls come from enrichment with a bait or labelling near it, and not all partners need be listed. Each block holds one binder with its values, some of them ahead of it.
Molecular target: Interleukin 32 (IL32) (Homo sapiens) (UniProt P24001)
Experiment: affinity purification with mass spectrometry; endogenous IL-32 precipitated with IL-32 antibody (R&D) coupled to M-270 Dynabeads from pre-cleared lysates (1% CHAPS, 50 mM Tris, 150 mM NaCl) of JJN-3 cells kept 24 h in hypoxia (2% O2); 2 h at 4°C, 4 washes with PBS; IL-32 KO cells as control; 5 replicates

The chains behind the UniProt entries cited, without tags or fusion partners. Where a name states a change or a piece, a line headed by the entry shows the natural chain unless it says otherwise.
UniProt P24001: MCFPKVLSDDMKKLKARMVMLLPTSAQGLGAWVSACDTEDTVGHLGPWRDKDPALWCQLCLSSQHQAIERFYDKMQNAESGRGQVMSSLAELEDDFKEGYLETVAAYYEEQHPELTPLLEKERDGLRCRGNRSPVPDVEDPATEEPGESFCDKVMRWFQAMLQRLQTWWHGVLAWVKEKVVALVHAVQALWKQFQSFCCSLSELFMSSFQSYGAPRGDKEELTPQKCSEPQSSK

binding: binds
B1: Syntaxin 6 (STX6) (protein, UniProt O43752 1-255)
chain: MSMEDPFFVVKGEVQKAVNTAQGLFQRWTELLQDPSTATREEIDWTTNELRNNLRSIEWDLEDLDETISIVEANPRKFNLDATELSIRKAFITSTRQVVRDMKDQMSTSSVQALAERKNRQALLGDSGSQNWSTGTTDKYGRLDRELQRANSHFIEEQQAQQQLIVEQQDEQLELVSGSIGVLKNMSQRIGGELEEQAVMLEDFSHELESTQSRLDNVMKKLAKVSHMTSDRRQWCAIAILFAVLLVVLILFLVL

binding: binds
B3: Solute carrier family 12 member 9 (protein, UniProt Q9BXP2-1 1-914)
chain: MASESSPLLAYRLLGEEGVALPANGAGGPGGASARKLSTFLGVVVPTVLSMFSIVVFLRIGFVVGHAGLLQALAMLLVAYFILALTVLSVCAIATNGAVQGGGAYFMISRTLGPEVGGSIGLMFYLANVCGCAVSLLGLVESVLDVFGADATGPSGLRVLPQGYGWNLLYGSLLLGLVGGVCTLGAGLYARASFLTFLLVSGSLASVLISFVAVGPRDIRLTPRPGPNGSSLPPRFGHFTGFNSSTLKDNLGAGYAEDYTTGAVMNFASVFAVLFNGCTGIMAGANMSGELKDPSRAIPLGTIVAVAYTFFVYVLLFFLSSFTCDRTLLQEDYGFFRAISLWPPLVLIGIYATALSASMSSLIGASRILHALARDDLFGVILAPAKVVSRGGNPWAAVLYSWGLVQLVLLAGKLNTLAAVVTVFYLVAYAAVDLSCLSLEWASAPNFRPTFSLFSWHTCLLGVASCLLMMFLISPGAAGGSLLLMGLLAALLTARGGPSSWGYVSQALLFHQVRKYLLRLDVRKDHVKFWRPQLLLLVGNPRGALPLLRLANQLKKGGLYVLGHVTLGDLDSLPSDPVQPQYGAWLSLVDRAQVKAFVDLTLSPSVRQGAQHLLRISGLGGMKPNTLVLGFYDDAPPQDHFLTDPAFSEPADSTREGSSPALSTLFPPPRAPGSPRALNPQDYVATVADALKMNKNVVLARASGALPPERLSRGSGGTSQLHHVDVWPLNLLRPRGGPGYVDVCGLFLLQMATILGMVPAWHSARLRIFLCLGPREAPGAAEGRLRALLSQLRIRAEVQEVVWGEGAGAGEPEAEEEGDFVNSGRGDAEAEALARSANALVRAQQGRGTGGGPGGPEGGDAEGPITALTFLYLPRPPADPARYPRYLALLETLTRDLGPTLLVHGVTPVTCTDL

binding: binds
B5: Zinc metallopeptidase STE24 (ZMPSTE24) (protein, UniProt O75844 1-475)
chain: MGMWASLDALWEMPAEKRIFGAVLLFSWTVYLWETFLAQRQRRIYKTTTHVPPELGQIMDSETFEKSRLYQLDKSTFSFWSGLYSETEGTLILLFGGIPYLWRLSGRFCGYAGFGPEYEITQSLVFLLLATLFSALTGLPWSLYNTFVIEEKHGFNQQTLGFFMKDAIKKFVVTQCILLPVSSLLLYIIKIGGDYFFIYAWLFTLVVSLVLVTIYADYIAPLFDKFTPLPEGKLKEEIEVMAKSIDFPLTKVYVVEGSKRSSHSNAYFYGFFKNKRIVLFDTLLEEYSVLNKDIQEDSGMEPRNEEEGNSEEIKAKVKNKKQGCKNEEVLAVLGHELGHWKLGHTVKNIIISQMNSFLCFFLFAVLIGRKELFAAFGFYDSQPTLIGLLIIFQFIFSPYNEVLSFCLTVLSRRFEFQADAFAKKLGKAKDLYSALIKLNKDNLGFPVSDWLFSMWHYSHPPLLERLQALKTMKQH

Further lines, the binder ahead of its results:

B2: Signal recognition particle 72 (SRP72) (protein, UniProt O76094 1-671)
chain: MASGGSGGVSVPALWSEVNRYGQNGDFTRALKTVNKILQINKDDVTALHCKVVCLIQNGSFKEALNVINTHTKVLANNSLSFEKAYCEYRLNRIENALKTIESANQQTDKLKELYGQVLYRLERYDECLAVYRDLVRNSQDDYDEERKTNLSAVVAAQSNWEKVVPENLGLQEGTHELCYNTACALIGQGQLNQAMKILQKAEDLCRRSLSEDTDGTEEDPQAELAIIHGQMAYILQLQGRTEEALQLYNQIIKLKPTDVGLLAVIANNIITINKDQNVFDSKKKVKLTNAEGVEFKLSKKQLQAIEFNKALLAMYTNQAEQCRKISASLQSQSPEHLLPVLIQAAQLCREKQHTKAIELLQEFSDQHPENAAEIKLTMAQLKISQGNISKACLILRSIEELKHKPGMVSALVTMYSHEEDIDSAIEVFTQAIQWYQNHQPKSPAHLSLIREAANFKLKYGRKKEAISDLQQLWKQNPKDIHTLAQLISAYSLVDPEKAKALSKHLPSSDSMSLKVDVEALENSAGATYIRKKGGKVTGDSQPKEQGQGDLKKKKKKKKGKLPKNYDPKVTPDPERWLPMRERSYYRGRKKGKKKDQIGKGTQGATAGASSELDASKTVSSPPTSPRPGSAATVSASTSNIIPPRHQKPAGAPATKKKQQQKKKKGGKGGW
binding: binds

B4: Mannose-6-phosphate receptor, cation dependent (M6PR) (protein, UniProt P20645 27-277)
chain: TEEKTCDLVGEKGKESEKELALVKRLKPLFNKSFESTVGQGSDTYIYIFRVCREAGNHTSGAGLVQINKSNGKETVVGRLNETHIFNGSNWIMLIYKGGDEYDNHCGKEQRRAVVMISCNRHTLADNFNPVSEERGKVQDCFYLFEMDSSLACSPEISHLSVGSILLVTFASLVAVYVVGGFLYQRLVVGAKGMEQFPHLAFWQDLGNLVADGCDFVCRSKPRNVPAAYRGVGDDQLGEESEERDDHLLPM
binding: binds

B6: Phosphatidylcholine:ceramide cholinephosphotransferase 1 (protein, UniProt Q86VZ5-1 1-413)
chain: MKEVVYWSPKKVADWLLENAMPEYCEPLEHFTGQDLINLTQEDFKKPPLCRVSSDNGQRLLDMIETLKMEHHLEAHKNGHANGHLNIGVDIPTPDGSFSIKIKPNGMPNGYRKEMIKIPMPELERSQYPMEWGKTFLAFLYALSCFVLTTVMISVVHERVPPKEVQPPLPDTFFDHFNRVQWAFSICEINGMILVGLWLIQWLLLKYKSIISRRFFCIVGTLYLYRCITMYVTTLPVPGMHFNCSPKLFGDWEAQLRRIMKLIAGGGLSITGSHNMCGDYLYSGHTVMLTLTYLFIKEYSPRRLWWYHWICWLLSVVGIFCILLAHDHYTVDVVVAYYITTRLFWWYHTMANQQVLKEASQMNLLARVWWYRPFQYFEKNVQGIVPRSYHWPFPWPVVHLSRQVKYSRLVNDT
binding: binds

B7: Desmocollin-1 (protein, UniProt Q08554-1 135-894)
chain: RWAPIPASLMENSLGPFPQHVQQIQSDAAQNYTIFYSISGPGVDKEPFNLFYIEKDTGDIFCTRSIDREKYEQFALYGYATTADGYAPEYPLPLIIKIEDDNDNAPYFEHRVTIFTVPENCRSGTSVGKVTATDLDEPDTLHTRLKYKILQQIPDHPKHFSIHPDTGVITTTTPFLDREKCDTYQLIMEVRDMGGQPFGLFNTGTITISLEDENDNPPSFTETSYVTEVEENRIDVEILRMKVQDQDLPNTPHSKAVYKILQGNENGNFIISTDPNTNEGVLCVVKPLNYEVNRQVILQVGVINEAQFSKAASSQTPTMCTTTVTVKIIDSDEGPECHPPVKVIQSQDGFPAGQELLGYKALDPEISSGEGLRYQKLGDEDNWFEINQHTGDLRTLKVLDRESKFVKNNQYNISVVAVDAVGRSCTGTLVVHLDDYNDHAPQIDKEVTICQNNEDFAVLKPVDPDGPENGPPFQFFLDNSASKNWNIEEKDGKTAILRQRQNLDYNYYSVPIQIKDRHGLVATHMLTVRVCDCSTPSECRMKDKSTRDVRPNVILGRWAILAMVLGSVLLLCILFTCFCVTAKRTVKKCFPEDIAQQNLIVSNTEGPGEEVTEANIRLPMQTSNICDTSMSVGTVGGQGIKTQQSFEMVKGGYTLDSNKGGGHQTLESVKGVGQGDTGRYAYTDWQSFTQPRLGEKVYLCGQDEEHKHCEDYVCSYNYEGKGSLAGSVGCCSDRQEEEGLEFLDHLEPKFRTLAKTCIKK
binding: binds

B8: Probable phospholipid-transporting ATPase IIB (protein, UniProt O43861-1 1-1147)
chain: MADQIPLYPVRSAAAAAANRKRAAYYSAAGPRPGADRHSRYQLEDESAHLDEMPLMMSEEGFENEESDYHTLPRARIMQRKRGLEWFVCDGWKFLCTSCCGWLINICRRKKELKARTVWLGCPEKCEEKHPRNSIKNQKYNVFTFIPGVLYEQFKFFLNLYFLVISCSQFVPALKIGYLYTYWAPLGFVLAVTMTREAIDEFRRFQRDKEVNSQLYSKLTVRGKVQVKSSDIQVGDLIIVEKNQRIPSDMVFLRTSEKAGSCFIRTDQLDGETDWKLKVAVSCTQQLPALGDLFSISAYVYAQKPQMDIHSFEGTFTREDSDPPIHESLSIENTLWASTIVASGTVIGVVIYTGKETRSVMNTSNPKNKVGLLDLELNRLTKALFLALVALSIVMVTLQGFVGPWYRNLFRFLLLFSYIIPISLRVNLDMGKAVYGWMMMKDENIPGTVVRTSTIPEELGRLVYLLTDKTGTLTQNEMIFKRLHLGTVSYGADTMDEIQSHVRDSYSQMQSQAGGNNTGSTPLRKAQSSAPKVRKSVSSRIHEAVKAIVLCHNVTPVYESRAGVTEETEFAEADQDFSDENRTYQASSPDEVALVQWTESVGLTLVSRDLTSMQLKTPSGQVLSFCILQLFPFTSESKRMGVIVRDESTAEITFYMKGADVAMSPIVQYNDWLEEECGNMAREGLRTLVVAKKALTEEQYQDFESRYTQAKLSMHDRSLKVAAVVESLEREMELLCLTGVEDQLQADVRPTLEMLRNAGIKIWMLTGDKLETATCIAKSSHLVSRTQDIHIFRQVTSRGEAHLELNAFRRKHDCALVISGDSLEVCLKYYEHEFVELACQCPAVVCCRCSPTQKARIVTLLQQHTGRRTCAIGDGGNDVSMIQAADCGIGIEGKEGKQASLAADFSITQFRHIGRLLMVHGRNSYKRSAALGQFVMHRGLIISTMQAVFSSVFYFASVPLYQGFLMVGYATIYTMFPVFSLVLDQDVKPEMAMLYPELYKDLTKGRSLSFKTFLIWVLISIYQGGILMYGALVLFESEFVHVVAISFTALILTELLMVALTVRTWHWLMVVAEFLSLGCYVSSLAFLNEYFGIGRVSFGAFLDVAFITTVTFLWKVSAITVVSCLPLYVLKYLRRKLSPPSYCKLAS
binding: binds
